Results are given in words; binding and its absence hold for the method and conditions named. Some entries that bind do so weakly or less than the wild type. Values belong to the binder of their own block, whether it stands above or below them.
How the values were obtained:
[1] = target: recombinant FVIII (Homo sapiens (Human)) (UniProt P00451); test: Intavis peptide array incubated with recombinant FVIII
[2] = target: recombinant FVIII domain A2 (Homo sapiens (Human)) (UniProt P00451); test: Intavis peptide array incubated with the A2 domain
[3] = target: recombinant FVIII (Homo sapiens (Human)) (UniProt P00451); test: phage display selection on recombinant FVIII or its domains, then ELISA

Sequences of proteins named here, by UniProt entry; tags and fusion partners are left off. A change or cut given only in a name is not applied to a line headed by its entry.
UniProt P00451: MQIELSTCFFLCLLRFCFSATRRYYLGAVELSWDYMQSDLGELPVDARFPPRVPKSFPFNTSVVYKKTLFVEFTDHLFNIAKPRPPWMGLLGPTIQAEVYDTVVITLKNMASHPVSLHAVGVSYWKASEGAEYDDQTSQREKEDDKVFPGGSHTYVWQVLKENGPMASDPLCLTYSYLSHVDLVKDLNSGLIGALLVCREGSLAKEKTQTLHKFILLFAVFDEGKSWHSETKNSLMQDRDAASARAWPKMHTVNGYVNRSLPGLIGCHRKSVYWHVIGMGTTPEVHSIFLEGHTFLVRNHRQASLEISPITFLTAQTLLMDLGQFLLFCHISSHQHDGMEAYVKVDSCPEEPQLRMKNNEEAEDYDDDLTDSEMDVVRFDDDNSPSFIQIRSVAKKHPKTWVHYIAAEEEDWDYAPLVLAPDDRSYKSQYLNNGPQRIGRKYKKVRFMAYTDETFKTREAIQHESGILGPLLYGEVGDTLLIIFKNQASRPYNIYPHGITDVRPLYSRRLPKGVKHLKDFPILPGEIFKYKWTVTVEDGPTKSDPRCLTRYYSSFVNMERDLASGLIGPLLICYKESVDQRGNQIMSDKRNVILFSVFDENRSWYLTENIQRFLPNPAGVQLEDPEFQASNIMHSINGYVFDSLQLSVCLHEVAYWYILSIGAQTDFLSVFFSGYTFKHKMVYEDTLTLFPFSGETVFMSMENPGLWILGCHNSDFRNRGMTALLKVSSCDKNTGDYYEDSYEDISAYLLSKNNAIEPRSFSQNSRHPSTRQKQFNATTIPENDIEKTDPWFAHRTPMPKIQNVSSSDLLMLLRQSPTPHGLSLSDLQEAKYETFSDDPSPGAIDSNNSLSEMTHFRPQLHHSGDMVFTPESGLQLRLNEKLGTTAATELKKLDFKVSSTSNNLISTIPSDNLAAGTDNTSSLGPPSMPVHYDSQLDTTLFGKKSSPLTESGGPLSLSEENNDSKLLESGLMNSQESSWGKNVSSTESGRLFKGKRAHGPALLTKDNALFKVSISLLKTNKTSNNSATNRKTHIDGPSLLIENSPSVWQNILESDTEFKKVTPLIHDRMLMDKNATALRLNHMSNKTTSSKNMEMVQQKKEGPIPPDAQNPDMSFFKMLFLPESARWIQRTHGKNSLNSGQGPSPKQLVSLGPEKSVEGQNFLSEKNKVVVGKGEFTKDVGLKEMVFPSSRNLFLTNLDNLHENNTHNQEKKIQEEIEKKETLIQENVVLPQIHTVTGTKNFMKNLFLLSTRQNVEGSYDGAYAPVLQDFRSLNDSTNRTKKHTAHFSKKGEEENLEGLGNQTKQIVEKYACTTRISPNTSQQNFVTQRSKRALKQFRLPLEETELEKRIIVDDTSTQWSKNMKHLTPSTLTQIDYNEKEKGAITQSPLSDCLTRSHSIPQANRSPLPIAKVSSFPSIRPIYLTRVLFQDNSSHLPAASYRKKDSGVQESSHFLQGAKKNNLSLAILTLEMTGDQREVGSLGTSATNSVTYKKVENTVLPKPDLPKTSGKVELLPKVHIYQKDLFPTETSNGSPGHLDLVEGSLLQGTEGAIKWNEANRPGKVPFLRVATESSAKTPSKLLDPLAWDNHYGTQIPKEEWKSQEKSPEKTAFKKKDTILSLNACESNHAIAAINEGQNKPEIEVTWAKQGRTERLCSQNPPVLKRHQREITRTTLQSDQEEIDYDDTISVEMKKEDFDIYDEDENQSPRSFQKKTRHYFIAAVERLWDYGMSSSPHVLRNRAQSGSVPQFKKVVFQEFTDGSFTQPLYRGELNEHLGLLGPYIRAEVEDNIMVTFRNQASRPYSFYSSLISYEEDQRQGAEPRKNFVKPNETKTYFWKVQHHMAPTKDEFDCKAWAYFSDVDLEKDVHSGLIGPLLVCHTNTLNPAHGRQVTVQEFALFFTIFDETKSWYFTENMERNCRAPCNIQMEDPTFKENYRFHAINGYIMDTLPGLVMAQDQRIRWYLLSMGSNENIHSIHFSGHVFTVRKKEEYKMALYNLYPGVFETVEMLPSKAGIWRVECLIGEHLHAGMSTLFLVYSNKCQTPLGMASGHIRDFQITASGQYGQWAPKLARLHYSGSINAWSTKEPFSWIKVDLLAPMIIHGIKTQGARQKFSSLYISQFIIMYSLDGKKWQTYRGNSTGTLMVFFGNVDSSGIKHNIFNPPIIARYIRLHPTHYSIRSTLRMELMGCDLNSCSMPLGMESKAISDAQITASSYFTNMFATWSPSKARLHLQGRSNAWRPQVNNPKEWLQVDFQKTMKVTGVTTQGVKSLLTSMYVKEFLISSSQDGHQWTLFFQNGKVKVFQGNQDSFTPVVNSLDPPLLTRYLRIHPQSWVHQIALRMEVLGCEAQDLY

binding [1]: binds
binding [2]: binds
B1: Ligand 384-1 (peptide)
peptide: IRIIPHH

binding [3]: binds
B2: SEQ ID NO 24 (peptide)
peptide: HHHHNRHQWLWTDTNVKVTS

binding [1]: binds
binding [2]: binds
B3: Ligand 384-6 (peptide)
peptide: HTEQKRNVIRIIPHHNYNAAINK

binding [1]: binds
binding [2]: binds
B4: Ligand 384-2 (peptide)
peptide: TKVSRYV

binding [1]: binds
binding [2]: binds
B5: Ligand 384-4 (peptide)
peptide: TQFTCNNGRCININW

binding [1]: binds
binding [2]: binds
B6: Ligand 384-8 (peptide)
peptide: ADKEYTNIFLKFGSGYVSGWGRVFHKGRSAL

binding [1]: binds
binding [2]: binds
B7: Ligand 384-3 (peptide)
peptide: TQFTCNNGRCI

binding [3]: binds
B8: SEQ ID NO 25 (peptide)
peptide: QVQLLESGGGLVQPGGSLRLSCAASGFTVSPNMSWVRQAPGKGLEWVSISSITVPNGSTYYADSVKGRFTRDNSKNTLYLQMNSLRAEDTAVYYCAGYSPWYDNFRYWGQGTLVTVSS

binding [1]: binds
binding [2]: binds
B9: Ligand 384-5 (peptide)
peptide: QCRLDGLCIPLRWRC

binding [1]: binds
binding [2]: binds
B10: Ligand 384-7 (peptide)
peptide: MKGKYGIYTKVSRYVNWIKEKTK
